# Measurements: paper doi:10.1101/2025.11.10.686860
# Chains of the proteins cited; added tags and fusions are not shown.
# UniProt Q9NR50: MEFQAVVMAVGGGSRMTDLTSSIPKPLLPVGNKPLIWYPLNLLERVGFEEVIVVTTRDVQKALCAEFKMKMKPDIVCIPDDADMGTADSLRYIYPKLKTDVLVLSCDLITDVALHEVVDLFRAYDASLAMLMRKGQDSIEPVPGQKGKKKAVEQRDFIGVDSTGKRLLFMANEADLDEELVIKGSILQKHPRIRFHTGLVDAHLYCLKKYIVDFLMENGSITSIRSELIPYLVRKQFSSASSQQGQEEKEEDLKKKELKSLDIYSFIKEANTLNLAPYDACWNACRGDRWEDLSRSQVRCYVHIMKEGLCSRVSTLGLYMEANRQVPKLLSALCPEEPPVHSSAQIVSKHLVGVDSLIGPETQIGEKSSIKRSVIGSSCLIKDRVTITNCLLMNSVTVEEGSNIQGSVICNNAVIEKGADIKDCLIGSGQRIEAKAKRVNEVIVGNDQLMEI
# UniProt P49770: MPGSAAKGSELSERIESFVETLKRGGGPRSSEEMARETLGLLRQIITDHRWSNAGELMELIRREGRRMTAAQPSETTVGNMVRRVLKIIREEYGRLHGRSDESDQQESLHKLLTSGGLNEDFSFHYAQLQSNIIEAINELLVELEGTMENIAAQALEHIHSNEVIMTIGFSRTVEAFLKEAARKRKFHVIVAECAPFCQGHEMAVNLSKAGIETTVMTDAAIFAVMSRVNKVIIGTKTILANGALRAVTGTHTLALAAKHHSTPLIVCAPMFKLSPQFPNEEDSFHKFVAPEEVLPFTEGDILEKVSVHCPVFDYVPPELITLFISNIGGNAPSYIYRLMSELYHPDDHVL
# These are yes or no findings as the source states them, for the method shown. In cells and extracts the contact can be indirect. Some binding calls cover weakened binding; strength is not graded here. For some of these results: Tags and fused reporters may be left off the sequences shown.
# How the values were obtained:
# [1] = biological target: KRAS G12C (endogenous, H358 cells) (human (endogenous in H358)) (UniProt P01116); assay: pull-down
# [2] = biological target: T1, MYC-eIF2Bα (human) (UniProt Q14232); assay: co-IP
# T1 sequence: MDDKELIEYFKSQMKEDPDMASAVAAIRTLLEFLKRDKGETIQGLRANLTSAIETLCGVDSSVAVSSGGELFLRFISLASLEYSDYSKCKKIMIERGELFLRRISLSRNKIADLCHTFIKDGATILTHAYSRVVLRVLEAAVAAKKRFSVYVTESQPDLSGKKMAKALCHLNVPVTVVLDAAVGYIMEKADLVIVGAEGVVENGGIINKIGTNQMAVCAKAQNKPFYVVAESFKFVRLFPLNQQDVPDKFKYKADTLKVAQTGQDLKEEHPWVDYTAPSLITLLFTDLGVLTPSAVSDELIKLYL
# [3] = biological target: FLAG-KRAS 4B G12A (UniProt P01116); assay: co-IP
# [4] = biological target: FLAG-KRAS 4B G12C (UniProt P01116); assay: co-IP
# [5] = biological target: FLAG-KRAS 4B S17N (UniProt P01116); assay: co-IP
# [6] = biological target: FLAG-KRAS 4B Q61R (UniProt P01116); assay: co-IP
# [7] = biological target: FLAG-KRAS 4B G12D (UniProt P01116); assay: co-IP
Substance,binding [1],binding [2],binding [3],binding [4],binding [5],binding [6],binding [7]
eIF2Bγ (endogenous) (from UniProt Q9NR50 1-452),binds,,,,,,
MYC-eIF2Bγ (from UniProt Q9NR50 1-452),,,binds,binds,no binding,binds,binds
eIF2Bβ (endogenous) (from UniProt P49770 1-351),binds,,,,,,

# Other lines, results leading:
binding [1],binding [2],binding [3],binding [4],binding [5],binding [6],binding [7],Substance
,binds,,,,,,HA-SOS1 (from UniProt Q07889 1-1333)
,,binds,binds,no binding,binds,binds,MYC-eIF2Bβ (from UniProt P49770 1-351)
